Taken from: PubChem BioAssay AID1224828 (NIAID, 2016)
The deposit covers about 17,000 reagents; this is a part drawn at random. 762 of all reagents (4.5%) were called active. 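Active calls include both raised and lowered p65 entry, mostly lowered; wells with fewer than 50 cells lack a z-score.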 Raw values are not corrected between plates.

Purpose: 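Find genes required for NF-kappaB p65 moving into the nucleus after LPS in mouse macrophages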 (primary screen)
Cell system: mouse RAW264.7 G9 macrophage reporter cells (GFP-p65, Tnf promoter-mCherry)
Knock-down reagent: siRNA pool against mouse genes, 100 nM
Duration: 2 days siRNA transfection, then 40 min LPS before fixation
Treatment: LPS (Salmonella minnesota R595) at 10 ng/ml
Detection: 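Imaged p65 nuclear translocation ratio, normalised to the plate median, converted to robust z-scores and averaged across two replicates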
Scale: p65 translocation robust z-score: higher = more nuclear NF-kappaB p65 after LPS than the plate median; nuclear/cytoplasmic p65 ratio: higher = more nuclear NF-kappaB p65
Active means: 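Active if robust z is above 3.3 (negative regulators) or below -1.56, the Tlr4 control median (positive regulators); activity score 50 or more; control wells not called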
Meaning of the calls: active = hit (p65 shift raised or lowered); inactive = no clear change

Sypl2 (synaptophysin like 2) [SID315467915]: p65 translocation robust z-score = 1.97; nuclear/cytoplasmic p65 ratio, rep 1 = 1.99; nuclear/cytoplasmic p65 ratio, rep 2 = 1.86; low cell count flag = enough cells to score; outcome = inactive
Zc3hav1 (zinc finger CCCH type, antiviral 1) [SID315475616]: nuclear/cytoplasmic p65 ratio, rep 1 = 1.4; nuclear/cytoplasmic p65 ratio, rep 2 = 1.15; low cell count flag = fewer than 50 cells per well; well left out of scoring; outcome = inactive
Chd6 (chromodomain helicase DNA binding protein 6) [SID315474229]: p65 translocation robust z-score = 1.23; nuclear/cytoplasmic p65 ratio, rep 1 = 1.55; nuclear/cytoplasmic p65 ratio, rep 2 = 1.59; low cell count flag = enough cells to score; outcome = inactive
Csn1s1 (casein alpha s1) [SID315466165]: p65 translocation robust z-score = 1.77; nuclear/cytoplasmic p65 ratio, rep 1 = 1.87; nuclear/cytoplasmic p65 ratio, rep 2 = 2.04; low cell count flag = enough cells to score; outcome = inactive
Sgcb (sarcoglycan, beta (dystrophin-associated glycoprotein)) [SID315470297]: p65 translocation robust z-score = 0.85; nuclear/cytoplasmic p65 ratio, rep 1 = 1.59; nuclear/cytoplasmic p65 ratio, rep 2 = 1.76; low cell count flag = enough cells to score; outcome = inactive
Fshb (follicle stimulating hormone beta) [SID315466751]: p65 translocation robust z-score = -1.77; nuclear/cytoplasmic p65 ratio, rep 1 = 1.19; nuclear/cytoplasmic p65 ratio, rep 2 = 1.17; low cell count flag = enough cells to score; outcome = active
Rps21 (ribosomal protein S21) [SID315472468]: p65 translocation robust z-score = 0.25; nuclear/cytoplasmic p65 ratio, rep 1 = 1.58; nuclear/cytoplasmic p65 ratio, rep 2 = 1.52; low cell count flag = enough cells to score; outcome = inactive
Mbd3l1 (methyl-CpG binding domain protein 3-like 1) [SID315474744]: p65 translocation robust z-score = 0.25; nuclear/cytoplasmic p65 ratio, rep 1 = 1.43; nuclear/cytoplasmic p65 ratio, rep 2 = 1.42; low cell count flag = enough cells to score; outcome = inactive

3 entries already listed, ordered by “nuclear/cytoplasmic p65 ratio, rep 2”, lowest first:
Zc3hav1 (zinc finger CCCH type, antiviral 1) [SID315475616]: nuclear/cytoplasmic p65 ratio, rep 1 = 1.4; nuclear/cytoplasmic p65 ratio, rep 2 = 1.15; low cell count flag = fewer than 50 cells per well; well left out of scoring; outcome = inactive
Chd6 (chromodomain helicase DNA binding protein 6) [SID315474229]: p65 translocation robust z-score = 1.23; nuclear/cytoplasmic p65 ratio, rep 1 = 1.55; nuclear/cytoplasmic p65 ratio, rep 2 = 1.59; low cell count flag = enough cells to score; outcome = inactive
Sypl2 (synaptophysin like 2) [SID315467915]: p65 translocation robust z-score = 1.97; nuclear/cytoplasmic p65 ratio, rep 1 = 1.99; nuclear/cytoplasmic p65 ratio, rep 2 = 1.86; low cell count flag = enough cells to score; outcome = inactive

Next entries follow:
Arhgef37 (Rho guanine nucleotide exchange factor 37) [SID315481501]: p65 translocation robust z-score = 1.28; nuclear/cytoplasmic p65 ratio, rep 1 = 1.45; nuclear/cytoplasmic p65 ratio, rep 2 = 1.71; low cell count flag = enough cells to score; outcome = inactive
Riok2 (RIO kinase 2) [SID315472800]: p65 translocation robust z-score = 0.25; nuclear/cytoplasmic p65 ratio, rep 1 = 1.5; nuclear/cytoplasmic p65 ratio, rep 2 = 1.6; low cell count flag = enough cells to score; outcome = inactive
Hoxa13 (homeobox A13) [SID315467250]: p65 translocation robust z-score = 0.64; nuclear/cytoplasmic p65 ratio, rep 1 = 1.62; nuclear/cytoplasmic p65 ratio, rep 2 = 1.36; low cell count flag = enough cells to score; outcome = inactive
Zfp385b (zinc finger protein 385B) [SID315479570]: p65 translocation robust z-score = -0.53; nuclear/cytoplasmic p65 ratio, rep 1 = 1.41; nuclear/cytoplasmic p65 ratio, rep 2 = 1.45; low cell count flag = enough cells to score; outcome = inactive
Slc19a3 [SID315475712]: nuclear/cytoplasmic p65 ratio, rep 1 = 1.41; nuclear/cytoplasmic p65 ratio, rep 2 = 1.29; low cell count flag = fewer than 50 cells per well; well left out of scoring; outcome = inactive
Cyyr1 (cysteine and tyrosine-rich protein 1) [SID315478339]: p65 translocation robust z-score = -1.16; nuclear/cytoplasmic p65 ratio, rep 1 = 1.42; nuclear/cytoplasmic p65 ratio, rep 2 = 1.57; low cell count flag = enough cells to score; outcome = inactive
Or4k35 (olfactory receptor family 4 subfamily K member 35) [SID315480076]: p65 translocation robust z-score = 1.99; nuclear/cytoplasmic p65 ratio, rep 1 = 1.91; nuclear/cytoplasmic p65 ratio, rep 2 = 1.69; low cell count flag = enough cells to score; outcome = inactive
Psmb9 [SID315467755]: p65 translocation robust z-score = -0.28; nuclear/cytoplasmic p65 ratio, rep 1 = 1.41; nuclear/cytoplasmic p65 ratio, rep 2 = 1.42; low cell count flag = enough cells to score; outcome = inactive
Rab27a (RAB27A, member RAS oncogene family) [SID315465527]: p65 translocation robust z-score = 0.93; nuclear/cytoplasmic p65 ratio, rep 1 = 1.64; nuclear/cytoplasmic p65 ratio, rep 2 = 1.66; low cell count flag = enough cells to score; outcome = inactive
Igsf1 (immunoglobulin superfamily, member 1) [SID315477587]: p65 translocation robust z-score = -0.87; nuclear/cytoplasmic p65 ratio, rep 1 = 1.42; nuclear/cytoplasmic p65 ratio, rep 2 = 1.34; low cell count flag = enough cells to score; outcome = inactive
Or8d4 (olfactory receptor family 8 subfamily D member 4) [SID315480493]: p65 translocation robust z-score = 0.37; nuclear/cytoplasmic p65 ratio, rep 1 = 1.51; nuclear/cytoplasmic p65 ratio, rep 2 = 1.27; low cell count flag = enough cells to score; outcome = inactive
Decr2 (2-4-dienoyl-Coenzyme A reductase 2, peroxisomal) [SID315470362]: p65 translocation robust z-score = 0.15; nuclear/cytoplasmic p65 ratio, rep 1 = 1.53; nuclear/cytoplasmic p65 ratio, rep 2 = 1.37; low cell count flag = enough cells to score; outcome = inactive
Sack1h (scaffolding CK1 anchoring protein H) [SID315476505]: nuclear/cytoplasmic p65 ratio, rep 1 = 1.21; nuclear/cytoplasmic p65 ratio, rep 2 = 1.4; low cell count flag = fewer than 50 cells per well; well left out of scoring; outcome = inactive
